Experimental data published in the supplement of paper PMC10849652.
The list shows a part of the results.

The chains behind the UniProt entries cited, without tags or fusion partners. Where a name states a change or a piece, a line headed by the entry shows the natural chain unless it says otherwise.
UniProt Q9Y5K3: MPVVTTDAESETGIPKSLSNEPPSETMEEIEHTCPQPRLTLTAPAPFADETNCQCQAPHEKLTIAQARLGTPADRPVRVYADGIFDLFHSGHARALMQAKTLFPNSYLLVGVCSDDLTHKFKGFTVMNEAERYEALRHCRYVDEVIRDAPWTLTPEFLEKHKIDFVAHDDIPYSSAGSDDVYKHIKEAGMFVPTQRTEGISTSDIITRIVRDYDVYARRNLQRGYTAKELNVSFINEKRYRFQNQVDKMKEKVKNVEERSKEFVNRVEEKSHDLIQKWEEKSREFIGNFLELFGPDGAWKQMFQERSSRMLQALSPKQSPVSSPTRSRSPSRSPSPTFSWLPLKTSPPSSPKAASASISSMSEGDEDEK
UniProt Q8WW12: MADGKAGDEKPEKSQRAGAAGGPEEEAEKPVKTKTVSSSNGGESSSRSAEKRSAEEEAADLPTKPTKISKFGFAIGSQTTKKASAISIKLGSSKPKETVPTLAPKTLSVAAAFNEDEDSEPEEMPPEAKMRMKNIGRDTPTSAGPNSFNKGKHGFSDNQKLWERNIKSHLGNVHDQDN
UniProt Q13442: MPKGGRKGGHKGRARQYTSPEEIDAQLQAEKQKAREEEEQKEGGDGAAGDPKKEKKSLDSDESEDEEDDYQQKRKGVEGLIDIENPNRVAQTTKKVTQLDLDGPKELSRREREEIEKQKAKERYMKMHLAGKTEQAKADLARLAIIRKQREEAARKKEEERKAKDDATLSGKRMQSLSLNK
UniProt O96011: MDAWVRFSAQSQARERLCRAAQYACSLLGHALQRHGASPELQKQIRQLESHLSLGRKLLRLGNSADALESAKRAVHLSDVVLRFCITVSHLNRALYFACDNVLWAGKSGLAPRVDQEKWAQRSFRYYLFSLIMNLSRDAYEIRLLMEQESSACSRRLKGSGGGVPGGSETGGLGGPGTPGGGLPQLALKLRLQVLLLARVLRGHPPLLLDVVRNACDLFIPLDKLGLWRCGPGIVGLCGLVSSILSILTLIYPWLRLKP
UniProt Q9NTI5: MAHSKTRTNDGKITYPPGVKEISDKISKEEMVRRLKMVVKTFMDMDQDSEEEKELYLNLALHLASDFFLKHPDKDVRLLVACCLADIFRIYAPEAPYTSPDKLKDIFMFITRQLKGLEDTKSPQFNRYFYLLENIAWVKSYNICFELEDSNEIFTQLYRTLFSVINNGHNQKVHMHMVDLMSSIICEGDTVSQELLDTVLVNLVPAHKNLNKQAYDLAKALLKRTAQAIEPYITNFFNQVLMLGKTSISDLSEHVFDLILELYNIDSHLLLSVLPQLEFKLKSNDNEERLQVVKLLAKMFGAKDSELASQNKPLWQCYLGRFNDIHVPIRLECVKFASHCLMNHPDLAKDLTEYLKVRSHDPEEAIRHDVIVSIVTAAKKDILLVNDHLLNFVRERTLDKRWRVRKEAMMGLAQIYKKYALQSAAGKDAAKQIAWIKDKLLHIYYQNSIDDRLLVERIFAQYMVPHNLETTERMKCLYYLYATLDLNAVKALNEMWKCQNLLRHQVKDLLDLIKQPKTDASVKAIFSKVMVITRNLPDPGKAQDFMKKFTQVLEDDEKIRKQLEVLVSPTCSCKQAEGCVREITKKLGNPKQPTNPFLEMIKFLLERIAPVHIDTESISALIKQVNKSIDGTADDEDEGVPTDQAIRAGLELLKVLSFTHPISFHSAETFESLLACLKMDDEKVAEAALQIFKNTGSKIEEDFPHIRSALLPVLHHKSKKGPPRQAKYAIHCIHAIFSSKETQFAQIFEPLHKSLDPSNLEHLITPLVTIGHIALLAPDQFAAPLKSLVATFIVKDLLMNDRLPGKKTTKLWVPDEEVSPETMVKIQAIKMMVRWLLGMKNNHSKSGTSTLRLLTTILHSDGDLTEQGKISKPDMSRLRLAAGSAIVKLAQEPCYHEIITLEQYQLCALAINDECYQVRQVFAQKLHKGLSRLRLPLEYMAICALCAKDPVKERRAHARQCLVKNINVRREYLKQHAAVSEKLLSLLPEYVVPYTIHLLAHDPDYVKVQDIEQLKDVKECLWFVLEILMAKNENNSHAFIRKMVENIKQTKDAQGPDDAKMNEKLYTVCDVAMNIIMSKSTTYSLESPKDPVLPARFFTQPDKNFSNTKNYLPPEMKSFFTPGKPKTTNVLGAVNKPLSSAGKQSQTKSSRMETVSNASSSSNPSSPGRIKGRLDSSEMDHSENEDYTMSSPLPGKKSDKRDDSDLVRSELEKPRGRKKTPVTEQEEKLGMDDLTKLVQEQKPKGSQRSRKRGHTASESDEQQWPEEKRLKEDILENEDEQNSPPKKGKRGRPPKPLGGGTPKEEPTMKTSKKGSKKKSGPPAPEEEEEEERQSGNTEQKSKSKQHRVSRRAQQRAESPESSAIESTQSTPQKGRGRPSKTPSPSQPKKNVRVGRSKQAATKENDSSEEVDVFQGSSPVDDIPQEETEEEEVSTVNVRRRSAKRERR
UniProt P12004, whole entry, looked up: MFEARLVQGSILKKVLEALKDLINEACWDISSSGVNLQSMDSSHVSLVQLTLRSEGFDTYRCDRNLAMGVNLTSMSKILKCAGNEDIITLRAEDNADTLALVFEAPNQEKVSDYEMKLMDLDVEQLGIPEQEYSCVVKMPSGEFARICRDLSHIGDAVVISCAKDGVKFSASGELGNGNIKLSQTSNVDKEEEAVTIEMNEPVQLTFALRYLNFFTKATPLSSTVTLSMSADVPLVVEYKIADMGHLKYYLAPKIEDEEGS
UniProt P40855: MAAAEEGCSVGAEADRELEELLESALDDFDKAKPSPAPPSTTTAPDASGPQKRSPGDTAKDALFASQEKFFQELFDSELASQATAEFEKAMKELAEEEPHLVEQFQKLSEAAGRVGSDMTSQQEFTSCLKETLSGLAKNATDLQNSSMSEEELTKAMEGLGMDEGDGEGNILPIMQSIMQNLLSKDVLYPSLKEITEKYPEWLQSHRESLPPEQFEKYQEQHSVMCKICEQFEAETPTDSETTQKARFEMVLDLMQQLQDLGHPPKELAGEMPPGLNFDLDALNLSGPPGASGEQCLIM
UniProt Q53EL6: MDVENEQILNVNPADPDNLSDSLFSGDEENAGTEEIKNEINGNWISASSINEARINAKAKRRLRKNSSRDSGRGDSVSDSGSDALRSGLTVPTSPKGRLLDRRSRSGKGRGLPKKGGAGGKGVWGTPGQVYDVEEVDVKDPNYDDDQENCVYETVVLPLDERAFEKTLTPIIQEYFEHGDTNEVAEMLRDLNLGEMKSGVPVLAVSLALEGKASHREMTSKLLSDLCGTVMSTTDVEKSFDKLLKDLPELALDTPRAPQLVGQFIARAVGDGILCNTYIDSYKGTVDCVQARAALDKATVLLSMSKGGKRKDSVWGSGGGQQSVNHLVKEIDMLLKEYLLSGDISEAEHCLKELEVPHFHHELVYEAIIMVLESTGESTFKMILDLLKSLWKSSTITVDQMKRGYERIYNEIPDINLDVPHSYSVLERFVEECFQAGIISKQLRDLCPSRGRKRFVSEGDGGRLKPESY
UniProt O60825: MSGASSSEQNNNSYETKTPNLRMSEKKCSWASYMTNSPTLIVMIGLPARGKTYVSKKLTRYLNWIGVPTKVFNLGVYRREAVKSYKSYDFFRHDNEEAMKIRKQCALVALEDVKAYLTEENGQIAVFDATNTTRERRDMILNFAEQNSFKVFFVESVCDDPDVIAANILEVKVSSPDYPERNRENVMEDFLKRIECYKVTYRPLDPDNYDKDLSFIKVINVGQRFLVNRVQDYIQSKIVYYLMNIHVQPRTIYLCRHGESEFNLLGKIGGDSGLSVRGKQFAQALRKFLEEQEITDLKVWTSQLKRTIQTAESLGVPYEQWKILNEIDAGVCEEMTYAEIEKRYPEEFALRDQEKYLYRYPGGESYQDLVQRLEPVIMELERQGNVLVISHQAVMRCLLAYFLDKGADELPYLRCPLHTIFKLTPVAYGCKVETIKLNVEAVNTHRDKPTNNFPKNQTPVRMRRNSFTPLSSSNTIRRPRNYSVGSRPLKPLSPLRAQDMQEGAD
UniProt Q6P996: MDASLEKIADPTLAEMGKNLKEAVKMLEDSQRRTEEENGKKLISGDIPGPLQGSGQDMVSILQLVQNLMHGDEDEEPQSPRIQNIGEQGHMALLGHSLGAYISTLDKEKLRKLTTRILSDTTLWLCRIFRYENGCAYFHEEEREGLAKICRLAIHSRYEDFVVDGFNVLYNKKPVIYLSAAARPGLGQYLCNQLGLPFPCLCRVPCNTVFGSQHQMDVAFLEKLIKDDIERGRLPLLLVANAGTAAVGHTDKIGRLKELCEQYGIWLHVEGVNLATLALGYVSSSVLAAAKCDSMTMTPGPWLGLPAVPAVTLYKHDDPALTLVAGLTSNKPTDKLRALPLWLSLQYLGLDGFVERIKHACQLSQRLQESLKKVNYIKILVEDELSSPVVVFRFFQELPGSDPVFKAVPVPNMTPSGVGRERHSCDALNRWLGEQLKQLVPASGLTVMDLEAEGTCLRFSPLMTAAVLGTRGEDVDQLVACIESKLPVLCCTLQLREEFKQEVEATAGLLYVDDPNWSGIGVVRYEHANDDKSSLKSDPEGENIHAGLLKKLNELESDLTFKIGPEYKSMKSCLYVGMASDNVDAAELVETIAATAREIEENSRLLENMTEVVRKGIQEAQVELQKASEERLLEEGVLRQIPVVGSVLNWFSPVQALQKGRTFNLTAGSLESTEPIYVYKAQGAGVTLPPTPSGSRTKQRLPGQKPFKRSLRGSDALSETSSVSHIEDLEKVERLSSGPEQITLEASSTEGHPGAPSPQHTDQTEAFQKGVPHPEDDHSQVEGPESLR
UniProt O15067: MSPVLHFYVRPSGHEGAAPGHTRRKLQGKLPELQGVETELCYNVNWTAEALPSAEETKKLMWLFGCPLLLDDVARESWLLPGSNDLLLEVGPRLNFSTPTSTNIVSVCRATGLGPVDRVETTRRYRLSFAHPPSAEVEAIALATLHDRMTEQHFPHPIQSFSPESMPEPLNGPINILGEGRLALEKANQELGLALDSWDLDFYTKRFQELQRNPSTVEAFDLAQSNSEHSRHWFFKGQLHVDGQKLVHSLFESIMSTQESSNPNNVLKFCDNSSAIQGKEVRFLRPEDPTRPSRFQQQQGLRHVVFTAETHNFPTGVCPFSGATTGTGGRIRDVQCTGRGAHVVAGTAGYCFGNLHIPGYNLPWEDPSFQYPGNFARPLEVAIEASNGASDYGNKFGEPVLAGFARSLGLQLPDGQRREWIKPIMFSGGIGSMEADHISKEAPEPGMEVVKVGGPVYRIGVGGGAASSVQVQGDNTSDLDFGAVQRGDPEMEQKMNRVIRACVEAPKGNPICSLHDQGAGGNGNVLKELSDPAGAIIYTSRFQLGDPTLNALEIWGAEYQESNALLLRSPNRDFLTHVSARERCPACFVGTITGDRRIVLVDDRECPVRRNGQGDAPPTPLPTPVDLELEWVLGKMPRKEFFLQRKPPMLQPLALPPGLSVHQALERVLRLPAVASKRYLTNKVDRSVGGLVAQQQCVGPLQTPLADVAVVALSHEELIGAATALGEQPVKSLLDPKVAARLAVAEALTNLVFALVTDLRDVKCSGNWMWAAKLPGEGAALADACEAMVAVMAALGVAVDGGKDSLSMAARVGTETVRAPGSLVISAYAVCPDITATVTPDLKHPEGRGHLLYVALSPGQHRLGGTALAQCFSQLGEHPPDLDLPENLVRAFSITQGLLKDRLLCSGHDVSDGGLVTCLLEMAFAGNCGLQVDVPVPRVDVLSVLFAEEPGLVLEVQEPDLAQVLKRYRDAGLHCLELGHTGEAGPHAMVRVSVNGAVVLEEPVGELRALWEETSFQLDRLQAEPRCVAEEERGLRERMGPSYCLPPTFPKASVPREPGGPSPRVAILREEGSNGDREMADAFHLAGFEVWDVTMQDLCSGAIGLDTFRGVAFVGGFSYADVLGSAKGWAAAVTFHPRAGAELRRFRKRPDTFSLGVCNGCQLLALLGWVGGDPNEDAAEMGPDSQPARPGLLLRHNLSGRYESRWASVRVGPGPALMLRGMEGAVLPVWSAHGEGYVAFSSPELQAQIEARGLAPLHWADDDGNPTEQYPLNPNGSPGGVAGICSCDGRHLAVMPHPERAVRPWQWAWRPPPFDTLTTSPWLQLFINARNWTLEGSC

What was measured:
Test in all cases: log2 fold change, soluble protein after heating vs DMSO (PISA); higher = thermal stabilisation; K562 lysate, 10 uM; active = over 0.2 and 3.5 SD of the protein, either way, in both replicates (recomputed)
[1] = compound: NCC(=O)Nc1ccc(-n2nc(C(F)(F)F)cc2-c2ccc3c(ccc4ccccc43)c2)cc1
In short: (§1)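 Pellets of K562 cells were dounce-homogenised in PBS pH 7.4 with 1 mM MgCl2, and the crude extract was held at 1 mg/mL protein for a 30 min treatment with 10 μM compound. Aliquots were heated for 3 min over 48°C-58°C and pooled before NP-40 was added to 0.5% at 4°C. The supernatant from 21,000xg for 90 min was quantified by TMTpro 16plex LC-MS/MS with channel sums equalised. Values are reported from duplicates as log-two fold change in thermal stability relative to solvent controls.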

vorinostat = compound: O=C(CCCCCCC(=O)Nc1ccccc1)NO [vorinostat]
In short: as §1

silmitasertib = compound: O=C(O)c1ccc2c(c1)nc(Nc1cccc(Cl)c1)c1ccncc12 [silmitasertib]
In short: as §1

[2] = compound: O=C1NC(=O)C(c2cnc3ccccn23)=C1c1cn2c3c(cc(F)cc13)CN(C(=O)N1CCCCC1)CC2
In short: as §1

entospletinib = compound: c1cn2cc(-c3ccc4cn[nH]c4c3)nc(Nc3ccc(N4CCOCC4)cc3)c2n1 [entospletinib]
In short: as §1

Target | log2 fold change [1] | log2 fold change (vorinostat) | log2 fold change (silmitasertib) | log2 fold change [2] | log2 fold change (entospletinib)
PCYT1B (UniProt Q9Y5K3) | inactive: -0.03 | inactive: 0.064 | inactive: -0.062 | inactive: -0.027 | inactive: 0.002
PCNP (UniProt Q8WW12) | inactive: 0.058 | inactive: 0.153 | inactive: -0.042 | inactive: 0.007 | inactive: 0.011
PDAP1 (UniProt Q13442) | inactive: 0.014 | inactive: 0.118 | inactive: 0.005 | inactive: -0.004 | inactive: -0.027
PEX11B (UniProt O96011) | inactive: -0.016 | inactive: 0.066 | inactive: 0.014 | inactive: -0.031 | inactive: 0.043
PDS5B (UniProt Q9NTI5) | inactive: 0 | inactive: -0.216 | inactive: 0.037 | inactive: 0.031 | inactive: 0.023
PCNA (UniProt P12004) | inactive: -0.006 | inactive: 0.064 | inactive: 0.003 | inactive: -0.018 | inactive: 0.009
PEX19 (UniProt P40855) | inactive: 0.02 | inactive: 0.152 | inactive: 0.013 | inactive: 0.033 | inactive: -0.007
PDCD4 (UniProt Q53EL6) | inactive: 0.004 | active: -0.378 | inactive: 0.014 | inactive: 0.003 | inactive: 0.038
PDPK1 (UniProt O15530) | inactive: -0.056 | inactive: -0.246 | inactive: 0.09 | inactive: 0.004 | inactive: -0.007
PFKFB2 (UniProt O60825) | inactive: -0.007 | active: -0.39 | inactive: 0.033 | inactive: 0.026 | inactive: 0.018
PDXDC1 (UniProt Q6P996) | inactive: -0.041 | active: -0.233 | inactive: 0.038 | inactive: 0.018 | inactive: -0.019
PFAS (UniProt O15067) | inactive: 0.029 | active: -0.272 | inactive: 0.022 | inactive: 0.031 | inactive: 0.016

Whole records as entered above:
PEX11B (UniProt O96011) as listed: log2 fold change [1]: inactive: -0.016; log2 fold change (vorinostat): inactive: 0.066; log2 fold change (silmitasertib): inactive: 0.014; log2 fold change [2]: inactive: -0.031; log2 fold change (entospletinib): inactive: 0.043
PCNA (UniProt P12004) as listed: log2 fold change [1]: inactive: -0.006; log2 fold change (vorinostat): inactive: 0.064; log2 fold change (silmitasertib): inactive: 0.003; log2 fold change [2]: inactive: -0.018; log2 fold change (entospletinib): inactive: 0.009
